# The supplement of paper PMC6411743
# ± gives the standard deviation of the averaged measurements. Some of the results follow.
# Target: T1, RAB3GAP2 (UniProt Q9H2M9)
# T1 sequence (whole entry): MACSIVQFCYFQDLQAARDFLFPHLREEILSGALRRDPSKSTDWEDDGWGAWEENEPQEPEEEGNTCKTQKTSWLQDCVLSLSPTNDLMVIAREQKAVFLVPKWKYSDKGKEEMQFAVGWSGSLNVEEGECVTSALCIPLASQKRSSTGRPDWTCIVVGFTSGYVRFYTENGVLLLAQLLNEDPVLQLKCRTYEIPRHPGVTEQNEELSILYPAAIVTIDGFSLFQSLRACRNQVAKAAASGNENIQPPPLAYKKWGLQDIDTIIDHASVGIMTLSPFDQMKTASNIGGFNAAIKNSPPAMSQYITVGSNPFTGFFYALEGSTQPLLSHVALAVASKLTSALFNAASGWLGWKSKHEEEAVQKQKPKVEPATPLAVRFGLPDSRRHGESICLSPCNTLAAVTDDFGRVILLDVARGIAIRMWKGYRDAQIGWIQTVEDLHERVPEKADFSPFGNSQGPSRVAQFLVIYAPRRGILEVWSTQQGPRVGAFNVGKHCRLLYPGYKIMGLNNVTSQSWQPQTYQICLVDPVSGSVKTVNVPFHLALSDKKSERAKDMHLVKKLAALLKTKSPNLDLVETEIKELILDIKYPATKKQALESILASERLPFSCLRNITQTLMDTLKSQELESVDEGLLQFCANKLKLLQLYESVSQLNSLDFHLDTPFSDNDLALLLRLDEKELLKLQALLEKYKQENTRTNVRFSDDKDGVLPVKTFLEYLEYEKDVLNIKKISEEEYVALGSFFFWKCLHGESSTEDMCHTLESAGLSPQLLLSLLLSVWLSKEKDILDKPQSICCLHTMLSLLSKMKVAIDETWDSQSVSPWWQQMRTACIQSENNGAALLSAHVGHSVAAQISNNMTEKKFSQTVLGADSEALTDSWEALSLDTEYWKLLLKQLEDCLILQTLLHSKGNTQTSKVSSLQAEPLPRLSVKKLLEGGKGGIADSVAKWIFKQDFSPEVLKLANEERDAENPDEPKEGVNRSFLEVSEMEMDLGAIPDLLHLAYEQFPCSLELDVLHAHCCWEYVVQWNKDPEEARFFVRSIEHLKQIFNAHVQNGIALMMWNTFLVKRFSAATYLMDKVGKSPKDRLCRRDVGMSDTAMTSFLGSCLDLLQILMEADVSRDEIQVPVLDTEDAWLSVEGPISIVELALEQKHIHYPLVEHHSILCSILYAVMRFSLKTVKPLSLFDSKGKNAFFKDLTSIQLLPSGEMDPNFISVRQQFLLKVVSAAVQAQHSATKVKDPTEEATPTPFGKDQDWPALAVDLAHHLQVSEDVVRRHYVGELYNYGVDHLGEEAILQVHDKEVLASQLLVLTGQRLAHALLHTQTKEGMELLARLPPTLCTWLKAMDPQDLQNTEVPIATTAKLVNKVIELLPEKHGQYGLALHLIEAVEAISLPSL
# Test: NP40-soluble protein abundance relative to vehicle (solubility fold change) (ratio); higher = more soluble protein in presence of GTP
# Experimental: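 Solubility proteome profiling in Jurkat crude lysate. Lysate was treated with Mg-GTP (0.1-10 mM) for 10 min at room temperature and 3 min at 37 °C, then solubilised with 0.8% NP40 and benzonase, followed by ultracentrifugation. Proteins were quantified by TMT10 LC-MS/MS; the value is the NP40-soluble abundance relative to the NP40-processed vehicle, from 3 independent experiments.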
smiles,measurement,setting,value
Nc1nc2c(ncn2[C@@H]2O[C@H](COP(=O)(O)OP(=O)(O)OP(=O)(O)O)[C@@H](O)[C@H]2O)c(=O)[nH]1 [guanosine triphosphate],NP40-soluble protein abundance,concentration: 0.1mM,1.04 ± 0.053
same,NP40-soluble protein abundance,concentration: 0.5mM,1.04 ± 0.074
same,NP40-soluble protein abundance,concentration: 1mM,0.999 ± 0.052
same,NP40-soluble protein abundance,concentration: 2mM,0.992 ± 0.058
same,NP40-soluble protein abundance,concentration: 4mM,0.982 ± 0.054
same,NP40-soluble protein abundance,concentration: 6mM,0.971 ± 0.051
same,NP40-soluble protein abundance,concentration: 8mM,0.934 ± 0.034
same,NP40-soluble protein abundance,concentration: 10mM,0.931 ± 0.059
